Binding data for four molecules are collected here from publication PMC10813977.

The chains behind the UniProt entries cited, without tags or fusion partners.
UniProt P42224: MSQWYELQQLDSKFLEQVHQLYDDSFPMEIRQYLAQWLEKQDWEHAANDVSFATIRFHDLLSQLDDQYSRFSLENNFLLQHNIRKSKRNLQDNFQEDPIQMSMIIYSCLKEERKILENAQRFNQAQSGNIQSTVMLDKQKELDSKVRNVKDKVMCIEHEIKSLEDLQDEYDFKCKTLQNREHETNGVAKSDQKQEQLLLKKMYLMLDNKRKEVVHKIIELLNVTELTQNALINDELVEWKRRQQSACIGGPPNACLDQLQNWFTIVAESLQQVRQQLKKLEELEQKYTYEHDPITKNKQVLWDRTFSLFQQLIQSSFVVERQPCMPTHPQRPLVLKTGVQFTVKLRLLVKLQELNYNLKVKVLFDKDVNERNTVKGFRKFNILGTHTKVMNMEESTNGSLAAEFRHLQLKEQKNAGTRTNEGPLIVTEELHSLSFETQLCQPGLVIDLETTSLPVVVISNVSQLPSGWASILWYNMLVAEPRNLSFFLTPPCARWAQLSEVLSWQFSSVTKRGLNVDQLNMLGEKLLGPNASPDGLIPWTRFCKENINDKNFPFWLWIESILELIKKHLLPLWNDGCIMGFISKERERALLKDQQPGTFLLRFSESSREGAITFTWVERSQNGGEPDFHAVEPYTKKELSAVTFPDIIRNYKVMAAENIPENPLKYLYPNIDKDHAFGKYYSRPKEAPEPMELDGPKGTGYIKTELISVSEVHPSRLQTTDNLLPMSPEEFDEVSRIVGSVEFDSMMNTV
UniProt P28838: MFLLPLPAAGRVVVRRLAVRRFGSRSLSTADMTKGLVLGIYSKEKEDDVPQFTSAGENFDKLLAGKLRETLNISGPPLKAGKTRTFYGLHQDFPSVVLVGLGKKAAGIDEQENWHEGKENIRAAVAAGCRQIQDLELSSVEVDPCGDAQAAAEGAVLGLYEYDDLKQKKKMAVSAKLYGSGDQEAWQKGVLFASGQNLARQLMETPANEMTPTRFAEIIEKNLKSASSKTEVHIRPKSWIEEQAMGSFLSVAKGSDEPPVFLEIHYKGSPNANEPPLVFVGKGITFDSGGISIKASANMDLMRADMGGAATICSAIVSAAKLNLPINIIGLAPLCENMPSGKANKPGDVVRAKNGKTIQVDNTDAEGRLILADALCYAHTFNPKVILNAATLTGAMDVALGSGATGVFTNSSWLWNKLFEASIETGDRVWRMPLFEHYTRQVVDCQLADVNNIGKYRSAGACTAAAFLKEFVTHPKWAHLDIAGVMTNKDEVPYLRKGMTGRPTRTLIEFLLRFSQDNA

In experiment [1] the target is T1, tryptophanyl-tRNA synthetase (WARS) tagged with Flag (human (cDNA from the A375 cell line)) (UniProt P23381).
T1 sequence: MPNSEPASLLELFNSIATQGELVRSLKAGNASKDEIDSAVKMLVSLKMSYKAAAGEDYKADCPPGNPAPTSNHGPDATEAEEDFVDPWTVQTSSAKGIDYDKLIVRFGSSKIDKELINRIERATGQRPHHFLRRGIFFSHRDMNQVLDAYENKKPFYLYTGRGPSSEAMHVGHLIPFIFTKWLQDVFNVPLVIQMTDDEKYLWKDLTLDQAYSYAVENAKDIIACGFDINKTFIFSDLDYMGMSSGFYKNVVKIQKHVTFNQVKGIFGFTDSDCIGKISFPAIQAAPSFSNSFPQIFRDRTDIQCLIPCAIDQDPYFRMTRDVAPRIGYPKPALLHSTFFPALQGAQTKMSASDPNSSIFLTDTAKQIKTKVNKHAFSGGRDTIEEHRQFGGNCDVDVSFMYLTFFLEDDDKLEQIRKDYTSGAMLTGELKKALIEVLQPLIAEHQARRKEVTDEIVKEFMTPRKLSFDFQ
Nature of the experiment: affinity purification with mass spectrometry; A375 cells transfected with WARS-Flag or control vector, treated with IFN-γ for 48 h; lysis in 50 mM Tris-HCl pH 8, 150 mM NaCl, 0.5% Nonidet P-40; anti-FLAG beads overnight at 4 °C, six washes, elution with 3× Flag peptide, tryptic digestion, LC-MS/MS.

Experiment [2] deals with T1, tryptophanyl-tRNA synthetase (WARS) tagged with Flag (human (cDNA from the A375 cell line)). The description is as above. This is another data set of the same source.

Read-outs that look alike come from different tables or passages of the source. No constants are given. Whether binding was seen depends on the method and setting. Binding seen in cells or lysates may run through a third protein. These calls come from enrichment with a bait or labelling near it, and not all partners need be listed. Where a sequence is shown, tags or fusion partners need not be part of it.

In the case of “Signal transducer and activator of transcription 1 (STAT1), endogenous (from UniProt P42224 1-750)”, in experiment [1], the binding entry is reported as “binds”.

For the molecule “cytosolic aminopeptidase LAP3 (from UniProt P28838 1-519) (enzyme)”, in experiment [1], the binding result was “binds”.

B1: Glycyl-tRNA synthetase (GARS) (enzyme, UniProt P41250 37-739)
chain: SAASCPPISLPAAASRSSMDGAGAEEVLAPLRLAVRQQGDLVRKLKEDKAPQVDVDKAVAELKARKRVLEAKELALQPKDDIVDRAKMEDTLKRRFFYDQAFAIYGGVSGLYDFGPVGCALKNNIIQTWRQHFIQEEQILEIDCTMLTPEPVLKTSGHVDKFADFMVKDVKNGECFRADHLLKAHLQKLMSDKKCSVEKKSEMESVLAQLDNYGQQELADLFVNYNVKSPITGNDLSPPVSFNLMFKTFIGPGGNMPGYLRPETAQGIFLNFKRLLEFNQGKLPFAAAQIGNSFRNEISPRSGLIRVREFTMAEIEHFVDPSEKDHPKFQNVADLHLYLYSAKAQVSGQSARKMRLGDAVEQGVINNTVLGYFIGRIYLYLTKVGISPDKLRFRQHMENEMAHYACDCWDAESKTSYGWIEIVGCADRSCYDLSCHARATKVPLVAEKPLKEPKTVNVVQFEPSKGAIGKAYKKDAKLVMEYLAICDECYITEMEMLLNEKGEFTIETEGKTFQLTKDMINVKRFQKTLYVEEVVPNVIEPSFGLGRIMYTVFEHTFHVREGDEQRTFFSFPAVVAPFKCSVLPLSQNQEFMPFVKELSEALTRHGVSHKVDDSSGSIGRRYARTDEIGVAFGVTIDFDTVNKTPHTATLRDRDSMRQIRAEISELPSIVQDLANGNITWADVEARYPLFEGQETGKKETIEE
As to B1, the binding result in experiment [2] is on record as “binds”.

B2: Aspartyl-tRNA synthetase (DARS) (enzyme, UniProt P14868 1-501)
chain: MPSASASRKSQEKPREIMDAAEDYAKERYGISSMIQSQEKPDRVLVRVRDLTIQKADEVVWVRARVHTSRAKGKQCFLVLRQQQFNVQALVAVGDHASKQMVKFAANINKESIVDVEGVVRKVNQKIGSCTQQDVELHVQKIYVISLAEPRLPLQLDDAVRPEAEGEEEGRATVNQDTRLDNRVIDLRTSTSQAVFRLQSGICHLFRETLINKGFVEIQTPKIISAASEGGANVFTVSYFKNNAYLAQSPQLYKQMCICADFEKVFSIGPVFRAEDSNTHRHLTEFVGLDIEMAFNYHYHEVMEEIADTMVQIFKGLQERFQTEIQTVNKQFPCEPFKFLEPTLRLEYCEALAMLREAGVEMGDEDDLSTPNEKLLGHLVKEKYDTDFYILDKYPLAVRPFYTMPDPRNPKQSNSYDMFMRGEEILSGAQRIHDPQLLTERALHHGIDLEKIKAYIDSFRFGAPPHAGGGIGLERVTMLFLGLHNVRQTSMFPRDPKRLTP
As to B2, the binding result in experiment [2] is reported as “binds”.
